PubChem BioAssay AID1259424 – University of Nebraska Medical Center, 2018
Purpose: 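Seek colon cancer survival genes behaving like KSR1, using a six-gene signature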 (primary screen). Cells: human HCT116 colon cancer cells. Reagent: siRNA pool against human genes, 50 nM. Read-out: 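Log2 levels of six mRNAs (branched-DNA multiplex), adjusted by two reference genes and the non-targeting median, then scored against the average KSR1 knockdown pattern as Pearson r and euclidean distance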. Scale: mean correlation with KSR1 profile and KSR1 correlation: higher = expression change more like KSR1 knockdown; mean distance from KSR1 profile: higher = expression change less like KSR1 knockdown.
Shown is one part, drawn at random, of about 14,000 reagents tested. 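Higher correlation or smaller distance means closer resemblance to KSR1 loss; control wells, including KSR1 knockdowns, recur on many plates.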 The record does not give: the time to read-out.

gene	mean correlation with KSR1 profile	mean distance from KSR1 profile	KSR1 correlation, replicate 1	KSR1 correlation, replicate 2	KSR1 correlation, replicate 3
VHL (von Hippel-Lindau tumor suppressor)	-0.742	1.87	-0.472	-0.943	-0.708
MLST8 (MTOR associated protein MLST8)	-0.108	2.63	0.0579	-0.118	-0.341
CASP8AP2 (caspase 8 associated protein 2)	-0.501	3.11	-0.412	-0.452	-0.577
RANGRF (RAN guanine nucleotide release factor)	0.298	0.851	-0.27	0.21	-0.313
ELOVL2 (ELOVL fatty acid elongase 2)	0.244	1.55	0.173	0.0387	0.452
STARD7 (StAR related lipid transfer domain containing 7)	0.468	1.9	0.374	0.383	0.664
FAM219B (family with sequence similarity 219 member B)	0.0538	1.91	-0.0152	0.0831	0.411
HFE (homeostatic iron regulator)	0.765	1.05	0.79	0.73	0.626
C8orf17 (chromosome 8 putative open reading frame 17)	-0.718	4.59	-0.734	-0.524	-0.613

Next part (2 carried over from the part before).
gene	mean correlation with KSR1 profile	mean distance from KSR1 profile	KSR1 correlation, replicate 1	KSR1 correlation, replicate 2	KSR1 correlation, replicate 3
HFE (homeostatic iron regulator)	0.765	1.05	0.79	0.73	0.626
C8orf17 (chromosome 8 putative open reading frame 17)	-0.718	4.59	-0.734	-0.524	-0.613
CACNA2D3	0.626	1.57	0.467	0.867	0.591
THAP9 (THAP domain containing 9)	0.443	1.45	0.461	0.66	0.226
ASB4 (ankyrin repeat and SOCS box containing 4)	-0.0524	3.24	0.0258	-0.234	-0.104
SEC14L2 (SEC14 like lipid binding 2)	-0.397	2.83	-0.564	-0.365	-0.381
N4BP2 (NEDD4 binding protein 2)	0.561	0.873	0.378	0.46	0.69
MATK (megakaryocyte-associated tyrosine kinase)	0.732	1.34	0.792	0.767	0.655
SLC75A1	0.476	4.13	0.537	0.625	0.122
SLC25A19	0.297	2.22	0.257	0.423	0.301
HTR3A (5-hydroxytryptamine receptor 3A)	0.449	2.02	0.17	0.288	0.574
THUMPD3 (THUMP domain 3 tRNA guanosine methyltransferase)	-0.0779	2.39	-0.0696	-0.191	0.0515
PLEKHA4 (pleckstrin homology domain containing A4)	0.341	3.54	0.261	0.29	0.418
